In data set [1] the test system is CFA-induced pain model in rats. Description: Antiallodynic activity on Complete Freund's Adjuvant (CFA)-induced inflammatory pain model. It is filed as in vivo, Sprague-Dawley rats. The conditions noted are these: intraperitoneally. In short, it runs like this: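 Male Sprague-Dawley rats given 100 ul CFA intraplantar in the right hind paw; one week later, ipsilateral mechanical allodynia (baseline threshold <4 g required) assessed with von Frey up-and-down method, 50% withdrawal threshold by Dixon formula. Compounds 50 mg/kg i.p. in 30% PEG or 20% Tween 80, tested 0.5 h post-dose; values as % of sham.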

Data set [2] has as its system MES (electroshock) seizure in rats. Description: Anti-epilepsy activity, MES test in rats. It is filed as in vivo, SD rats. In short, it runs like this: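 Male ICR mice (19–25 g) and male SD rats (100–130 g) dosed orally with compound in 20% Tween 80/saline, then shocked via corneal electrodes at peak time (mice 50 mA, rats 150 mA; 60 Hz, 0.2 sec). Three doses used; ED50 for seizure protection by Litchfield–Wilcoxon log-probit.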

Data set [3] relates to Picrotoxin (PIC)-induced clonic seizure in mice. Put plainly: Chemical induced seizure model (PIC). The format is in vivo, ICR mice. How it is done:
Picrotoxin (PIC) were used to induce the behavioral seizures in the experiments. Male ICR mice (purchased from Orient Bio Inc. Korea) of body weight 19-26 g (mice) were used for these studies. The test materials were administered intraperitoneal (ip) route in a volume of 10 ul/g (mice) weight in rats or mice, respectively. Pharmacological effects of the test materials were evaluated to compared test groups (n=6) with a control group (n=6). Control group was administrated vehicle, only. The peak time was determined by administration of test material's random dose for 0.5, 1, 2, 4 hour. The time that the most protect was defined as a peak time and ED50 was determined by other dose administration at the peak time. Chemical (PIC) was dissolved in 0.9% saline and administered subcutaneously (s.c.) at its CD97 (convulsive dose 97%), the dose of Chemical (PIC) that produced clonic seizures in 97% into a loose fold of skin in the midline of the neck in a volume of 10 ul/g (mice) body weight. The animals were then transferred to observation cages and observed continuously for 45 min. Clonic seizure was elicited in approximately 97% of control group. Protection was defined as a complete absence of clonic seizure over the 45-min observation period. The effective dose of compound necessary to protect against generalized convulsive seizures to 50% of controls (i.e., ED50) was determined by log probit analysis using SPSS software program (SPSS Inc.). (Reference; White H. S., J. H. Woodhead, K. S. Wilcox, J. P. Stables, H. J. Kupferberg, and H. H. Wolf. General Principles; Discovery and Preclinical Development of Antiepileptic Drugs. In: R. H. Levy, R. H. Mattson, B. S. Meldrum, and E. Perucca, eds. Antiepileptic Drugs, 5th Ed. Lippincott Williams & Wilkins, Philadelphia 2002: pp. 36-48.) The obtained results are shown in following Table 10.

Data set [4] relates to acetic acid-induced writhes in ICR mice. Put plainly: Writhing test (acetic acid). It is filed as in vivo. The note with it: po. How it is done: To examine the pain relief effect of the carbamate compounds, a writhing test was conducted, referring to Fischer, L. G. et al. (2008).
ICR mice (male, 24-28g; Orient Bio, Korea) were habituated before test (in test room) for 1 hour. Animals were fasted 2 hr before administration of compounds. Each of compounds was orally administered at the three dose, 10 ul/g, bw (n=3-5/group). All compounds were dissolved in a vehicle of 30% (v/v) PEG 400 or 20% (v/v) Tween 80. The control group was treated the vehicle without compounds.
0.2-2 hour after the administration of compounds, 0.6% acetic acid at the dose of 10 ul/g by bodyweight was injected into the mice Animals were habituated in the cage for 5 min. 5 min after habituation, the number of writhes (abdominal constriction) was counted for 15 min, referring to Korzeniewska-Rybicka, I. et al. (1998) and compared with that of a control.
The relative values compared to the control (% control) were calculated and shown in […]

In the case of `NC(=O)O[C@@H]1c2c(Cl)cccc2CC[C@@H]1O` [Example 19, (1R, 2S)-8-chloro-2-hydroxy-1,2,3,4-tetrahydronaphthalen-1-yl carbamate], the “CFA model Peak Time” value in data set [1] is listed as 0.5 h. The “MES test (po) Peak time” value in data set [2] came to 2 h. The “PIC(ip) Peak Time” value in data set [3] stood at 2 h. Further, the “Writhing test Peak Time” value in data set [4] is 1 h.

As to `NC(=O)O[C@@H]1CCc2cccc(Cl)c2[C@@H]1O` [Example 1, (1S, 2R)-8-chloro-1-hydroxy-1,2,3,4-tetrahydronaphthalen-2-yl carbamate], the “CFA model Peak Time” value in data set [1] came to 0.5 h. The “MES test (po) Peak time” value in data set [2] came to 1 h. For the same molecule, in data set [3], the “PIC(ip) Peak Time” value is 2 h. Moreover, in data set [4], the “Writhing test Peak Time” value was 1 h.

Values taken from patent US11168052B2, “Carbamate derivative compounds, processes for preparing them and their uses” (BIO-PHARM SOLUTIONS CO., LTD., priority 2016, dated 2021).
